Measured data: PubChem BioAssay AID1224828 (NIAID, 2016)

Assay: 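Find genes required for NF-kappaB p65 moving into the nucleus after LPS in mouse macrophages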 (primary screen)
System: mouse RAW264.7 G9 macrophage reporter cells (GFP-p65, Tnf promoter-mCherry)
Reagent: siRNA pool against mouse genes, 100 nM
Duration: 2 days siRNA transfection, then 40 min LPS before fixation
Treatment: LPS (Salmonella minnesota R595) at 10 ng/ml
Measurement: 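Imaged p65 nuclear translocation ratio, normalised to the plate median, converted to robust z-scores and averaged across two replicates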
Reading the numbers: p65 translocation robust z-score: higher = more nuclear NF-kappaB p65 after LPS than the plate median; nuclear/cytoplasmic p65 ratio: higher = more nuclear NF-kappaB p65
Call rule: 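Called active when z exceeds 3.3 or falls under -1.56 (median of Tlr4 controls), giving activity score of at least 50; no calls for control wells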
Calls: active = hit (p65 shift raised or lowered); inactive = no clear change
Shown is an unselected part of about 17,000 deposited reagents. 762 of them (4.5%) count as active. 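Active calls include both raised and lowered p65 entry, mostly lowered; wells with fewer than 50 cells lack a z-score.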 Raw values vary from plate to plate and are shown uncorrected. A number with no mark means an inactive call.

| target gene | p65 translocation robust z-score | nuclear/cytoplasmic p65 ratio, rep 1 | nuclear/cytoplasmic p65 ratio, rep 2 | low cell count flag |
| --- | --- | --- | --- | --- |
| Galnt3 | – | 1.63 | 1.29 | fewer than 50 cells per well; well left out of scoring |
| Or5b116 | 1.62 | 1.91 | 1.58 | enough cells to score |
| Mmp10 | 0.33 | 1.42 | 1.44 | enough cells to score |
| Or10a3m | 0.8 | 1.55 | 1.36 | enough cells to score |
| Agap1 | 2.62 | 1.82 | 2.39 | enough cells to score |
| Mrgpra6 | 0.44 | 1.77 | 1.73 | enough cells to score |
| Tgds | – | 1.55 | 1.01 | fewer than 50 cells per well; well left out of scoring |
| Ptpn3 | -1.69 (active) | 1.19 | 1.25 | enough cells to score |
| Aplp1 | 0.71 | 1.76 | 1.69 | enough cells to score |
| Or4b13 | -0.68 | 1.46 | 1.38 | enough cells to score |
| H2-Q6 | -1.28 | 1.17 | 1.3 | enough cells to score |
| Commd10 | 0.71 | 1.68 | 1.97 | enough cells to score |
| Slc25a3 | -0.86 | 1.2 | 1.23 | enough cells to score |
| Or51t4 | – | 1.42 | 0 | fewer than 50 cells per well; well left out of scoring |
| Mrpl52 | 1.12 | 1.98 | 1.75 | enough cells to score |
| Otud6b | 0.68 | 1.49 | 1.79 | enough cells to score |

Part of the list above, showing only “nuclear/cytoplasmic p65 ratio, rep 1”:
Or51t4	1.42
Mrpl52	1.98

The results go on.
| target gene | p65 translocation robust z-score | nuclear/cytoplasmic p65 ratio, rep 1 | nuclear/cytoplasmic p65 ratio, rep 2 | low cell count flag |
| --- | --- | --- | --- | --- |
| Tfap2e | -0.31 | 1.39 | 1.16 | enough cells to score |
| Nkx2-2 | 0.29 | 1.49 | 1.45 | enough cells to score |
| Ica1l | -2.63 (active) | 1.1 | 1.03 | enough cells to score |
| Gpr83 | – | 1.39 | 1.51 | fewer than 50 cells per well; well left out of scoring |
| Slc27a1 | 0.4 | 1.31 | 1.3 | enough cells to score |
| Ide | -0.52 | 1.25 | 1.42 | enough cells to score |
| Tmem25 | -0.87 | 1.49 | 1.3 | enough cells to score |
| Zfp353-ps | -0.16 | 1.43 | 1.2 | enough cells to score |
